Assay results published in publication PMC12177876, “Nanoflow Size Exclusion Chromatography–Native Mass Spectrometry of Intact Proteoforms and Protein Complexes” (Analytical Chemistry, 2025).
These are yes or no findings as the source states them, for the method shown. Some binding calls cover weakened binding; strength is not graded here.

The chains behind the UniProt entries cited, without tags or fusion partners.
UniProt P00924: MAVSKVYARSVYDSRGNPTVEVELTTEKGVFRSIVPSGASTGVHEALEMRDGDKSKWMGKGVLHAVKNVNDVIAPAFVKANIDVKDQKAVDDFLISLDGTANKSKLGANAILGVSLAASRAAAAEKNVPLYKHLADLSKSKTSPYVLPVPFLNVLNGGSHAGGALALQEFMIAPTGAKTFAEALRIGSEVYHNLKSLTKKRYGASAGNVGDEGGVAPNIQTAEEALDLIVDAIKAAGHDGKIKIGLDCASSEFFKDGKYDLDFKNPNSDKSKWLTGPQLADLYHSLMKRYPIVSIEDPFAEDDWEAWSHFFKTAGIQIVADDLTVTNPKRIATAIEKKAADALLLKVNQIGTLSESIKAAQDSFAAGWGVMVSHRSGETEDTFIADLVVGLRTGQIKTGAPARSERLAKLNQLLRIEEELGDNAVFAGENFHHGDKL

Target: enolase (UniProt P00924)
Assay: SEC + native MS; nanoflow SEC-nMS of reference proteins: 50 nL of 1 mg mL^-1 protein injected, 200 um ID capillary SEC column, 0.5 uL min^-1, eluted with 200 mM AmAc; isCID varies by protein; both purified

binding: binds
Substance: enolase (from UniProt P00924 1-437) (enzyme)
